Test results published in paper PMC3355318 (Toxicological Sciences, 2012).

Tested on: 3D spheroids constructed from immortal human C3A hepatocytes (HepG2/C3A)

CCCCc1oc2ccccc2c1C(=O)c1cc(I)c(OCCN(CC)CC)c(I)c1 [Amiodarone, amiodarone]
cellular ATP production at low compound concentrations: slightly increased
LD50 (human): 0.6 mg compound/mg cellular protein
